Publication PMC6856630
Results are given in words; binding and its absence hold for the method and conditions named. Some entries that bind do so weakly or less than the wild type.

Amino acid sequences for entries named in this document (tags omitted). A change or cut given only in a name is not applied to a line headed by its entry. Chains listed by the source or under a name are the forms on record and can include a tag or linker. Residues count along the entry.
Nrxn1 LNS2^SS2A+, crystallographic construct (Q9CS84, form named): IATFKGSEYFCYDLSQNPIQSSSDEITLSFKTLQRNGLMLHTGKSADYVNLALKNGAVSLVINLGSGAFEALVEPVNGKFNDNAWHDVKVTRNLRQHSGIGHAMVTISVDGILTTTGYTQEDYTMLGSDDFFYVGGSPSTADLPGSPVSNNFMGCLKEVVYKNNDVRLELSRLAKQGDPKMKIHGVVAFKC
Nrxn1 LNS2^SS2− (C293A), crystallographic construct (Q9CS84, form named): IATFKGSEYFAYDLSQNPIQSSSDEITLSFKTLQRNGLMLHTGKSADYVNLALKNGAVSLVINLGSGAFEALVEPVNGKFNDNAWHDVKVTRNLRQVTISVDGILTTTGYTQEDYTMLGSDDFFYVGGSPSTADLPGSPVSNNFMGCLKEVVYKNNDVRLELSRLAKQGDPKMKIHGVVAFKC
Nxph1^3ND (mature rat neurexophilin-1, 118-271, N146D/N156D/N162D) (Q63366, form named): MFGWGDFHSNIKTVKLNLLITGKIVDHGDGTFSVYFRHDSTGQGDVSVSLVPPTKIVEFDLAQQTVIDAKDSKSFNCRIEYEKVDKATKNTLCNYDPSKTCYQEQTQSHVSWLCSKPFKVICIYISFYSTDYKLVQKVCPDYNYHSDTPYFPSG

Assays:
[1] = molecular target: Nrxn1 LNS2^SS2A+, crystallographic construct (mouse) (UniProt Q9CS84); test: crystal structure; Nxph1^3ND co-expressed and co-purified with LNS2, tags cleaved; 2–3 mg/ml, 16% PEG 3350, 2% Tacsimate pH 5.0, 0.1 M sodium citrate tribasic; no Ca2+; both purified
[2] = molecular target: Nrxn1 LNS2^SS2− (C293A), crystallographic construct (mouse) (UniProt Q9CS84); test: as above

binding [1]: binds | binding [2]: binds
Substance: Nxph1^3ND (mature rat neurexophilin-1, 118-271, N146D/N156D/N162D) (from UniProt Q63366 118-271) (ligand)
